PubChem BioAssay AID504784 | Drosophila RNAi Screening Center | 2011
The screen tested about 17,000 reagents; this is a random part of those that have a named target and a result. 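Each column is one replicate's B-score; the combined score over replicates was not deposited, so single values may mislead.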 Reagents against one gene are numbered here. A plus sign joins genes that one reagent is predicted to hit. Reagent sequences are not shown.

- Screen: 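Genome-wide knock-down for genes giving too much or too little stored lipid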 (primary screen)
- System: Drosophila Kc167 embryonic cells
- Knock-down reagent: long dsRNA against Drosophila genes, about 250 ng dsRNA per well
- Time to read-out: 4 days
- Challenge: cells fed 400 µM oleic acid bound to BSA
- Measured: 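Cells imaged and segmented; ratio of lipid droplet area to nuclear area, log-transformed, then normalised as a B-score over the screen; higher means more stored lipid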
- Scale: droplet/nuclear area B-score: higher = more stored lipid (overstorage)

The opening 6 records, to show the layout:
l(2)k10201 (GeneID 48373) #1 | droplet/nuclear area B-score, replicate 1 = 0.83; droplet/nuclear area B-score, replicate 2 = 0.0546
l(2)k10201 (GeneID 48373) #2 | droplet/nuclear area B-score, replicate 1 = -0.243; droplet/nuclear area B-score, replicate 2 = 0.0168
FMRFa (GeneID 36030) | droplet/nuclear area B-score, replicate 1 = 0.34; droplet/nuclear area B-score, replicate 2 = 0.416
Rab9Db + Rab9D + Rab9Fa + 1 more | droplet/nuclear area B-score, replicate 1 = 0.234; droplet/nuclear area B-score, replicate 2 = -1.18
CG30492 (retired record) + M7BP #1 | droplet/nuclear area B-score, replicate 1 = -0.0577; droplet/nuclear area B-score, replicate 2 = -1.05
CG30492 (retired record) + M7BP #2 | droplet/nuclear area B-score, replicate 1 = -0.631; droplet/nuclear area B-score, replicate 2 = -1.21

The list itself, repeating the preview:
l(2)k10201 (GeneID 48373) #1 | droplet/nuclear area B-score, replicate 1 = 0.83; droplet/nuclear area B-score, replicate 2 = 0.0546
l(2)k10201 (GeneID 48373) #2 | droplet/nuclear area B-score, replicate 1 = -0.243; droplet/nuclear area B-score, replicate 2 = 0.0168
FMRFa (GeneID 36030) | droplet/nuclear area B-score, replicate 1 = 0.34; droplet/nuclear area B-score, replicate 2 = 0.416
Rab9Db + Rab9D + Rab9Fa + 1 more | droplet/nuclear area B-score, replicate 1 = 0.234; droplet/nuclear area B-score, replicate 2 = -1.18
CG30492 (retired record) + M7BP #1 | droplet/nuclear area B-score, replicate 1 = -0.0577; droplet/nuclear area B-score, replicate 2 = -1.05
CG30492 (retired record) + M7BP #2 | droplet/nuclear area B-score, replicate 1 = -0.631; droplet/nuclear area B-score, replicate 2 = -1.21
CG30492 (retired record) + M7BP #3 | droplet/nuclear area B-score, replicate 1 = 0.0128; droplet/nuclear area B-score, replicate 2 = 0.287
CG30492 (retired record) + M7BP #4 | droplet/nuclear area B-score, replicate 1 = 0.232; droplet/nuclear area B-score, replicate 2 = -0.794
CG11353 (GeneID 38560) | droplet/nuclear area B-score, replicate 1 = -0.09; droplet/nuclear area B-score, replicate 2 = -1.28
Arglu1 (GeneID 34320) | droplet/nuclear area B-score, replicate 1 = -0.335; droplet/nuclear area B-score, replicate 2 = -0.69
Ack-like (GeneID 36442) | droplet/nuclear area B-score, replicate 1 = 0.659; droplet/nuclear area B-score, replicate 2 = -0.914
Pax (GeneID 35215) #1 | droplet/nuclear area B-score, replicate 1 = 1.7; droplet/nuclear area B-score, replicate 2 = -0.265
Pax (GeneID 35215) #2 | droplet/nuclear area B-score, replicate 1 = 1.39; droplet/nuclear area B-score, replicate 2 = -2.55
Pax (GeneID 35215) #3 | droplet/nuclear area B-score, replicate 1 = 0.203; droplet/nuclear area B-score, replicate 2 = 0.843
CG9512 (GeneID 32419) | droplet/nuclear area B-score, replicate 1 = 0.0167; droplet/nuclear area B-score, replicate 2 = -0.0858; droplet/nuclear area B-score, replicate 3 = 0.635
Slob (GeneID 34038) | droplet/nuclear area B-score, replicate 1 = -1.39; droplet/nuclear area B-score, replicate 2 = -0.0978
CG18371 (GeneID 36556) | droplet/nuclear area B-score, replicate 1 = 2.57; droplet/nuclear area B-score, replicate 2 = -0.318
CG11147 (GeneID 33803) | droplet/nuclear area B-score, replicate 1 = 0.45; droplet/nuclear area B-score, replicate 2 = -2.33
CG13933 (GeneID 38227) | droplet/nuclear area B-score, replicate 1 = 1.11; droplet/nuclear area B-score, replicate 2 = 1.27
Hug (GeneID 41547) | droplet/nuclear area B-score, replicate 1 = 0.0184; droplet/nuclear area B-score, replicate 2 = -0.216
CG17637 (GeneID 40275) | droplet/nuclear area B-score, replicate 1 = 0.569; droplet/nuclear area B-score, replicate 2 = 0.673
CG1632 (GeneID 31763) #1 | droplet/nuclear area B-score, replicate 1 = 0.841; droplet/nuclear area B-score, replicate 2 = 0.747
CG1632 (GeneID 31763) #2 | droplet/nuclear area B-score, replicate 1 = -0.0657; droplet/nuclear area B-score, replicate 2 = 0.567
wrapper (GeneID 37555) | droplet/nuclear area B-score, replicate 1 = 0.0707; droplet/nuclear area B-score, replicate 2 = 0.141
AhcyL1 (GeneID 38342) | droplet/nuclear area B-score, replicate 1 = 0.0376; droplet/nuclear area B-score, replicate 2 = 0.046
Gr33a (GeneID 34641) | droplet/nuclear area B-score, replicate 1 = -0.885; droplet/nuclear area B-score, replicate 2 = -0.0707
Tom70 (GeneID 34618) | droplet/nuclear area B-score, replicate 2 = -1.16; droplet/nuclear area B-score, replicate 3 = -1.01
CLIP-190 (GeneID 35042) | droplet/nuclear area B-score, replicate 1 = 0.123; droplet/nuclear area B-score, replicate 2 = -0.842
CG16868 (GeneID 37298) | droplet/nuclear area B-score, replicate 1 = 0.85; droplet/nuclear area B-score, replicate 2 = -0.844
CG6403 (GeneID 43220) | droplet/nuclear area B-score, replicate 1 = -0.347; droplet/nuclear area B-score, replicate 2 = 1.11
Ibf2 (GeneID 41102) | droplet/nuclear area B-score, replicate 1 = 0.302; droplet/nuclear area B-score, replicate 2 = -0.333
nSyb (GeneID 38196) | droplet/nuclear area B-score, replicate 1 = -0.1
CG18302 (GeneID 34452) | droplet/nuclear area B-score, replicate 1 = -2.39; droplet/nuclear area B-score, replicate 2 = -0.142
Rgk2 (GeneID 37132) #1 | droplet/nuclear area B-score, replicate 1 = -0.853; droplet/nuclear area B-score, replicate 2 = 0.54
Rgk2 (GeneID 37132) #2 | droplet/nuclear area B-score, replicate 1 = -1.28; droplet/nuclear area B-score, replicate 2 = 0.00208
CG11413 + CG4622 | droplet/nuclear area B-score, replicate 1 = 1.6; droplet/nuclear area B-score, replicate 2 = 0.3
Su(var)205 (GeneID 34119) | droplet/nuclear area B-score, replicate 1 = -1.86; droplet/nuclear area B-score, replicate 2 = -2.43
RabX4 (GeneID 42960) | droplet/nuclear area B-score, replicate 1 = 1.83; droplet/nuclear area B-score, replicate 2 = 0.699
CG17567 (retired record) (GeneID 50468) #1 | droplet/nuclear area B-score, replicate 1 = -1.07; droplet/nuclear area B-score, replicate 2 = -0.146
CG17567 (retired record) (GeneID 50468) #2 | droplet/nuclear area B-score, replicate 1 = 1.2; droplet/nuclear area B-score, replicate 2 = 0.986
CG14671 (GeneID 40671) | droplet/nuclear area B-score, replicate 1 = -0.3; droplet/nuclear area B-score, replicate 2 = -0.89
CG14082 (GeneID 40088) | droplet/nuclear area B-score, replicate 1 = -1.61; droplet/nuclear area B-score, replicate 2 = -0.755
atl (GeneID 42934) | droplet/nuclear area B-score, replicate 1 = -1.15; droplet/nuclear area B-score, replicate 2 = 0.0556
CG6602 (GeneID 38691) | droplet/nuclear area B-score, replicate 1 = -0.507; droplet/nuclear area B-score, replicate 2 = -1.34
Nplp2 (GeneID 50286) | droplet/nuclear area B-score, replicate 1 = -0.255; droplet/nuclear area B-score, replicate 2 = -0.485
CG15473 (GeneID 31401) | droplet/nuclear area B-score, replicate 1 = 1.28; droplet/nuclear area B-score, replicate 2 = 2.12
Pcl (GeneID 37069) | droplet/nuclear area B-score, replicate 1 = -2.04; droplet/nuclear area B-score, replicate 2 = -0.337
CG6324 (GeneID 32481) | droplet/nuclear area B-score, replicate 1 = 1.38; droplet/nuclear area B-score, replicate 2 = -0.456
Usp14 (GeneID 34387) | droplet/nuclear area B-score, replicate 1 = 0.0179; droplet/nuclear area B-score, replicate 2 = -0.926
Mfe2 (GeneID 32582) | droplet/nuclear area B-score, replicate 1 = -0.603; droplet/nuclear area B-score, replicate 2 = 0.0105; droplet/nuclear area B-score, replicate 3 = -0.42
dup (GeneID 47121) | droplet/nuclear area B-score, replicate 1 = -0.0409; droplet/nuclear area B-score, replicate 2 = -0.446
